Experimental findings from PubChem BioAssay AID1307 (SRMLSC, 2008) are described below.

SMILES strings stand for the structures. The campaign covered roughly 1,200 compounds. Fewer than 10 were called active.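 Rule for the calls: active = inhibition reaching a set limit at one or more tested concentrations; inactive = inhibition under that limit at every dose.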 The list shows a part of the results. Measured potencies and affinities stand elsewhere.

This assay is described as follows: yeast RAM network inhibitors, dose response, S. cerevisiae (AID 1307).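 Note: 0% = DMSO vehicle wells and 100% = 10 µM 1-NA-PP1 control; higher inhibition means more yeast growth since RAM block rescues cells from 5-FOA.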 To be noted: S. cerevisiae RAM network URA3 reporter, 5-FOA growth OD615, hits give high values, yeast express analog-sensitive mutant Cbk1 kinase; at 100 µM unless noted.
For `CCc1ccc(OCC(=O)N2c3ccccc3CCc3ccccc32)cc1`, the max inhibition is inactive: 2.64% [at 3.125 µM]. With `O=C(Nc1ccc(F)cc1)c1sccc1SCc1cccc(C(F)(F)F)c1`, the max inhibition was inactive: 2.84% [at 1.563 µM]. Turning to `CCCNS(=O)(=O)c1ccc(CCC(=O)Nc2cc(Cl)ccc2Oc2ccccc2)cc1`, the max inhibition is inactive: 1.73%.

As to `CCC(C(=O)Nc1ccsc1C(=O)OC)c1ccccc1` (centres undefined), the max inhibition was inactive: 2.46% [at 0.391 µM]. In the case of `N#CC(c1ccc(F)cc1)c1ccc(C(=O)c2ccccc2)cc1` (centres undefined), the max inhibition was inactive: 3.72% [at 50 µM]. With `CN(C[C@H](Cc1ccccc1)N(C[C@H](Cc1ccccc1)N(CCC(C)(C)C)N=O)N=O)N=O` the figure was inactive: 2.96% [at 1.563 µM]; with `CC(C)(C)NC(=O)c1ccc(NC(=O)CSc2ccccc2)cc1`, inactive: 3.2% [at 1.563 µM]. Consider `Cc1ccc(-n2ncc3c(=O)[nH]c(SCC(=O)N4CCCc5ccccc54)nc32)cc1`, for which the max inhibition is inactive: 7.61%. In the case of `Nc1nn2c(-c3ccccc3)cc(=O)[nH]c2c1N=Nc1ccc(Br)cc1`, the max inhibition was inactive: 1.99% [at 6.25 µM]. On to `CCC(C)NC(=O)c1ccccc1NC(=O)c1ccc(CSc2ccccc2)cc1` (centres undefined), for which the max inhibition was inactive: 2.42%. Consider `FC(F)Sc1ccc(NC(=S)NC(c2ccccc2)c2ccccc2)cc1`, for which the max inhibition was inactive: 4.2% [at 0.196 µM].

`O=C(NC(=S)N(Cc1ccccc1)Cc1ccccc1)c1ccccc1F`: the max inhibition was inactive: 2.14% [at 3.125 µM].

Take `COc1ccc(CCN2C(=O)/C(=C\c3ccco3)SC2=S)cc1OC`: the max inhibition was inactive: 7.96%. `CCN(CC)S(=O)(=O)c1cccc(C(=O)OCC(=O)c2ccc3c(c2)OCCO3)c1`: the max inhibition is inactive: 3.81% [at 6.25 µM].

For the compound `CCOc1cc(C2NN=C(c3ccccc3)S2)ccc1OCc1ccccc1Cl` (centres undefined), the max inhibition is inactive: 3.36% [at 50 µM]. With `CCCCCCn1c(=O)c(C(=O)N/N=C/c2cccc(F)c2)c(O)c2ccccc21` the figure was inactive: 6.08% [at 6.25 µM]. `CSc1ccc(/C=C/C(=O)c2ccc(NC(=O)Cc3ccccc3)cc2)cc1`: the max inhibition is inactive: 7.56%. Regarding `COCCCNc1nc(SCc2ccccc2)nc2sc3c(c12)CCC3`, the max inhibition is inactive: 4.5% [at 50 µM]. On to `O=C(C1=C[C@H](c2csc3ccccc23)C[C@H](OCc2ccc(CO)cc2)O1)N1CCOCC1`, for which the max inhibition was inactive: 2.48% [at 0.391 µM]. Take `CC(C)OCCCNC(=O)C(NS(=O)(=O)c1ccc2c(c1)c(=O)n(C)c(=O)n2C)c1ccccc1` (centres undefined): the max inhibition is inactive: 2.24%. Turning to `CCCC1S/C(=N/N=C/c2ccc(OC)cc2)N(Cc2ccc(OC)cc2)C1=O` (centres undefined), the max inhibition was inactive: 7.41%. In the case of `C=CCN1C(=O)/C(=C/c2ccc(OC(C)=O)c(OCC)c2[N+](=O)[O-])SC1=S`, the max inhibition was inactive: 2.43% [at 50 µM]. On to `CCCCSc1nc(SCC(=O)NCc2ccco2)c2c3c(sc2n1)COC(C)(CC)C3` (centres undefined), for which the max inhibition is inactive: 8.99% [at 50 µM].

Turning to `CCn1c(CCNC(=O)c2ccc(Cl)c(Cl)c2)nnc1SCCOc1ccc(OC)cc1`, the max inhibition is inactive: 3.23%.

As for `Cc1cccc(CSc2nc3sc(C)c(C)c3c(=O)n2Cc2ccco2)c1`, the max inhibition is inactive: 5.75% [at 25 µM]. With `CCOC(=O)CSc1nc(-c2ccccc2)nc2ccc(F)cc12`, the max inhibition is inactive: 6.49%. With `Cn1c(=O)c2c(ncn2CC(=O)OCC(=O)NC(c2ccccc2)c2ccccc2)n(C)c1=O`, the max inhibition is inactive: 9.47% [at 50 µM]. Take `CCOC(=O)c1sc(NC(=O)CCCn2nc([N+](=O)[O-])cc2C)c(C(=O)OCC)c1C`: the max inhibition is inactive: 4.45% [at 0.782 µM]. Turning to `Cc1nn(CCc2nn[nH]n2)c2nc(-c3ccc(C4CCCCC4)cc3)cc(C(F)(F)F)c12`, the max inhibition is inactive: 8.89%. Consider `CCCOc1ccc(/C=C2\SC(=S)N(CC3CCCO3)C2=O)cc1` (centres undefined), for which the max inhibition was inactive: 5.7% [at 50 µM].

As to `COc1ccc(Cl)cc1NC(=O)NC(C)C(C)(C)C` (centres undefined), the max inhibition is inactive: 3.94% [at 25 µM].

Consider `CCCc1nn(C)c(C(=O)Nc2ccc(C(C)(C)C)cc2)c1Cl`, for which the max inhibition was inactive: 3.4%. As to `CCCCOc1nc2ccccc2nc1C(C#N)C(=O)NC1CCCCC1` (centres undefined), the max inhibition is inactive: 4.45%.

For `Cc1cc(NC(=O)CSc2nc3ccsc3c(=O)n2Cc2ccccn2)n[nH]1`, the max inhibition was inactive: 2.41% [at 12.5 µM].

As to `C=CCOc1cccc(/C=C2\C(=O)N(Cc3ccc(C)cc3)C(C)=C2C(=O)OC)c1`, the max inhibition is inactive: 6.85%. In the case of `CCC1C/C(=C/c2cccs2)C(=O)/C(=C/c2cccs2)C1` (centres undefined), the max inhibition is inactive: 6.84% [at 25 µM]. Take `CCCCCCN(C(=O)CCCCCN1C(=O)NC(c2ccc(-c3ccccc3)cc2)C(C(=O)OCc2ccccc2)=C1C)C(C)C(=O)NCCCC` (centres undefined): the max inhibition was inactive: 4.59%.

Take `CC(=O)NCCn1c(SCc2cccc([N+](=O)[O-])c2)nc2ccccc2c1=O`: the max inhibition is inactive: 4.57%. With `Cc1ccc(Oc2ccc(NC(=O)CCC(=O)OCC(=O)c3cccs3)cc2)cc1C`, the max inhibition was inactive: 2.21% [at 12.5 µM]. For the compound `Clc1ccccc1CSc1nnc(-c2ccco2)c(-c2ccco2)n1`, the max inhibition is inactive: 10.5%. With `Cc1cccc(NC(=O)CCC(=O)OCC(=O)c2ccc(Oc3ccc([N+](=O)[O-])cc3)cc2)c1` the figure was inactive: 10.3% [at 50 µM]; with `Cc1[nH]n(-c2ccccc2)c(=O)c1N=Nc1ccccc1`, inactive: 2.67% [at 0.196 µM]; with `O=C(N=Nc1c(O)n(C2OC(=O)c3ccccc32)c2ccccc12)c1ccc(O)cc1` (centres undefined), inactive: 6.24%. As for `COc1ccc(-c2ccc(SCC(=O)NCc3ccc4c(c3)OCO4)nn2)cc1OC`, the max inhibition is inactive: 9.68%. Consider `CC(=O)c1ccc(NC(=S)NC2CCCC(C)C2C)cc1` (centres undefined), for which the max inhibition was inactive: 3.65% [at 0.196 µM]. Consider `COc1ccc(OCCNC(=O)c2cccc(Oc3ccc(C(F)(F)F)cc3[N+](=O)[O-])c2)cc1`, for which the max inhibition was inactive: 4.55% [at 25 µM]. For the compound `COc1ccc(NC(=O)CSc2nc3ccccc3c(=O)n2CCNC(C)=O)c(OC)c1`, the max inhibition was inactive: 2.13% [at 1.563 µM].

In the case of `CN(c1ccc(C(=O)NCCSCc2ccc(Cl)cc2)cc1)S(=O)(=O)c1ccccc1`, the max inhibition was inactive: 3.48% [at 25 µM]. As for `COC(=O)CCCCCN1C(=O)NC(c2ccc(-c3ccccc3)cc2)C(C(=O)OCc2ccccc2)=C1C` (centres undefined), the max inhibition was inactive: 4.68% [at 50 µM].
